Data from patent US8383125B2, “Antimicrobial protein” (Agriculture Victoria Services Pty, Limited, priority 2006, dated 2013).
At least one peptide structure holds a part that was inferred or is arguable (an end, a ring closure or a residue). Where a SMILES comes first, the peptide text is derived from it. [ ]: non-standard residue; d: D form.

Tests used:
E. coli DH 5α = format: in vitro ADME, Escherichia coli; settings: 250 μg/ml peptide in 75% goat serum, 37° C.
E. coli DH5α = settings: 5 μl of 250 μg/ml solutions

Q: With CC[C@@H](C)[C@@H](NC(=O)[C@@H](CO)NC(=O)[C@@H](CC(N)=O)NC(=O)[C@@H](CCCNC(=N)N)NC(=O)[C@@H](Cc1ccccc1)NC(=O)[C@@H](CCCCN)NC(=O)[C@@H](CCCCN)NC(=O)[C@@H](CC(C)C)NC(=O)[C@@H](CCCNC(=N)N)NC(=O)[C@@H](CCCCN)NC(=O)[C@@H](CCCNC(=N)N)NC(=O)[C@@H](CC(C)C)NC(=O)[C@@H](CCCCN)NC(=O)[C@@H](CCCCN)NC(=O)CNC(=O)[C@@H](Cc1ccccc1)NC(=O)CNC(=O)[C@@H](CCCNC(=N)N)NC(=O)[C@H](N)CCCCN)C(=O)N[C@H](CCCCN)C(=O)N[C@H](CCCCN)C(=O)N[C@H](CCCNC(=N)N)C(=O)N[C@H](CC(C)C)C(=O)N[C@H](CCCCN)C(=O)N[C@H](CC(N)=O)C(=O)N[C@H](Cc1ccccc1)C(=O)N[C@H](CC(N)=O)C(=O)N[C@@H](C(=O)N[C@@H](C(=O)N[C@@H](C(=O)N1CCC[C@@H]1C(=O)N[C@@H](C(=O)N1CCC[C@@H]1C(=O)N[C@H](CC(C)C)C(=O)N1CCC[C@@H]1C(N)=O)[C@H](C)CC)[C@H](C)CC)C(C)C)C(C)C [SEQ ID NO: 9, D-Lys D-Arg D-Gly D-Phe D-Gly D-Lys D-Lys D-Leu D-Arg D-Lys D-Arg D-Leu D-Lys D-Lys D-Phe D-Arg D-Asn D-Ser D-Ile D-Lys D-Lys D-Arg D-Leu D-Lys D-Asn D-Phe D-Asn D-Val D-Val D-Ile D-Pro D-Ile D-Pro D-Leu D-Pro] (H-[dK][dR]G[dF]G[dK][dK][dL][dR][dK][dR][dL][dK][dK][dF][dR][dN][dS][dI][dK][dK][dR][dL][dK][dN][dF][dN][dV][dV][dI][dP][dI][dP][dL][dP]-NH2; N-terminus and C-terminus assumed) as the compound, how does the “activity in serum relative to SEQ ID NO: 2 (FIG. 5)” value (E. coli DH 5α) read?
A: enhanced activity

Q: What about the “antimicrobial activity, cleared area in radial diffusion assay (FIG. 4)” value (E. coli DH5α) of the same compound?
A: exhibits antimicrobial activity
